Two molecules from article PMC12804605 can be followed below.

These are yes or no findings as the source states them, for the method shown. In cells and extracts the contact can be indirect. Some results given as binding are weak or reduced against the parent protein; the word gives no strength.

Test [1] addresses T1, PGC-1α, endogenous in mouse cells (mouse (endogenous in ovarian granulosa cells and in NIH/3T3)), O70343.
T1 chain: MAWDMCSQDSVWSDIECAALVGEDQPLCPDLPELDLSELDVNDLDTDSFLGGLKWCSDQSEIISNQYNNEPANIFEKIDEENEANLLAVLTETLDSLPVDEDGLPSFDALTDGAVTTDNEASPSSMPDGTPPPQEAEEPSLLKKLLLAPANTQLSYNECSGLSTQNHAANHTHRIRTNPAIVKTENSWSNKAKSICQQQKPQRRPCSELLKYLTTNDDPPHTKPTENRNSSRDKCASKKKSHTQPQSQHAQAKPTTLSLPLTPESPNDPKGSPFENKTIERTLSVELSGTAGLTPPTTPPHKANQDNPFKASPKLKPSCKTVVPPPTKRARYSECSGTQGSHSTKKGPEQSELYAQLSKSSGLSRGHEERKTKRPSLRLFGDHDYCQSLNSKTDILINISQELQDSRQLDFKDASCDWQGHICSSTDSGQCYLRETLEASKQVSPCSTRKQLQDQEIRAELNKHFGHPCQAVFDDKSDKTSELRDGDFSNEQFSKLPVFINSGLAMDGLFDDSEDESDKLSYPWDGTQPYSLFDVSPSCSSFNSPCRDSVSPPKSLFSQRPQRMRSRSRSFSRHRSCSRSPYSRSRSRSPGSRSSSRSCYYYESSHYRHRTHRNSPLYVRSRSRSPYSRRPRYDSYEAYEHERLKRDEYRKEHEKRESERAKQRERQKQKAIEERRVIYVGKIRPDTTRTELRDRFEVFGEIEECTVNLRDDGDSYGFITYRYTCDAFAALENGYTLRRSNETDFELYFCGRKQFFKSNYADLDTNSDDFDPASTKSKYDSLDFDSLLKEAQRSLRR
The test can be described thus: co-IP; ovarian granulosa cells of mice given vehicle, FSH, or FSH with C646, LMK-235 or SR-18292; NRF1/2 co-immunoprecipitated with PGC-1α, Western blot. The note with it: remark: other sources report otherwise.

The target in test [2] is T2, PGC-1α, endogenous in mouse cells (mouse (endogenous in ovarian granulosa cells and in NIH/3T3)) (UniProt O70343).
T2 sequence: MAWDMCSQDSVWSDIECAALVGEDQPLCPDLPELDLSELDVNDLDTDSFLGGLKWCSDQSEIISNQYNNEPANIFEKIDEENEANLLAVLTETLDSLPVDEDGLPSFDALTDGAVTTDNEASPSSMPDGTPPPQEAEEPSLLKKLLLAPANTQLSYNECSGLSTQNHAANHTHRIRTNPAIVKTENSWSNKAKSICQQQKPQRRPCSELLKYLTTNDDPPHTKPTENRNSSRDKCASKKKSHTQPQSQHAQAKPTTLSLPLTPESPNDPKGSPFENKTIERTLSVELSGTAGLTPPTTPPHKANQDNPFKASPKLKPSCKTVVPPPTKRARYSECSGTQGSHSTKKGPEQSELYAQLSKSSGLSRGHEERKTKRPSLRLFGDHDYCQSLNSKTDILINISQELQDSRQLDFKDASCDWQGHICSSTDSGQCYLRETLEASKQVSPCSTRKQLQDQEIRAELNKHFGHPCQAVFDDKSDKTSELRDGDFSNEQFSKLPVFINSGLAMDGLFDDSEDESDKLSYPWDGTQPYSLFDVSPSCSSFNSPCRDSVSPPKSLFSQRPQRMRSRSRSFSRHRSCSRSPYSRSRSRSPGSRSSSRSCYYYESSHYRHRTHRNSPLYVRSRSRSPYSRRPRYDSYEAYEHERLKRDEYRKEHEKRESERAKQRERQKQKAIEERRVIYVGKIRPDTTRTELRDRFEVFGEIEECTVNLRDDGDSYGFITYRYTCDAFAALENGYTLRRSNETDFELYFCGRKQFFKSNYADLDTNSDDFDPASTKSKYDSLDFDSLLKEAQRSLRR
The description is as above.

B1: NRF2 (GABPα), endogenous in mouse ovarian granulosa cells, Q00422 1-454 (protein)
chain: MTKREAEELIEIEIDGTEKAECTEESIVEQTYTPAECVSQAIDINEPIGNLKKLLEPRLQCSLDAHEICLQDIQLDPDRSLFDQGVKTDGTVQLSVQVISYQGMEPKLNILEIVKTAETVEVVIDPDAHHAEAEAHLVEEAQVITLDGTKHITTISDETSEQVTRWAAALEGYRKEQERLGIPYDPIHWSTDQVLHWVVWVMKEFSMTDIDLTTLNISGRELCSLNQEDFFQRVPRGEILWSHLELLRKYVLASQEQQMNEIVTIDQPVQIIPASVPPATPTTIKVINSSAKAAKVQRSPRISGEDRSSPGNRTGNNGQIQLWQFLLELLTDKDARDCISWVGDEGEFKLNQPELVAQKWGQRKNKPTMNYEKLSRALRYYYDGDMICKVQGKRFVYKFVCDLKTLIGYSAAELNRLVIECEQKKLARMQLHGIAQPVTAVALAATSLQADKEI
As for B1, the binding entry in test [1] was “binds”.

B2: NRF1, endogenous in mouse ovarian granulosa cells (protein, UniProt Q9WU00 1-503)
chain: MEEHGVTQTEHMATIEAHAVAQQVQQVHVATYTEHSMLSADEDSPSSPEDTSYDDSDILNSTAADEVTAHLAAAGPVGMAAAAAVATGKKRKRPHVFESNPSIRKRQQTRLLRKLRATLDEYTTRVGQQAIVLCISPSKPNPVFKVFGAAPLENVVRKYKSMILEDLESALAEHAPAPQEVNSELPPLTIDGIPVSVDKMTQAQLRAFIPEMLKYSTGRGKPGWGKESCKPIWWPEDIPWANVRSDVRTEEQKQRVSWTQALRTIVKNCYKQHGREDLLYAFEDQQTQTQATTTHSIAHLVPSQTVVQTFSNPDGTVSLIQVGTGATVATLADASELPTTVTVAQVNYSAVADGEVEQNWATLQGGEMTIQTTQASEATQAVASLAEAAVAASQEMQQGATVTMALNSEAAAHAVATLAEATLQGGGQIVLSGETAAAVGALTGVQDANGLVQIPVSMYQTVVTSLAQGNGPVQVAMAPVTTRISDSAVTMDGQAVEVVTLEQ
For B2, in test [2], the binding entry is “binds”.
